# Percent effect of library compounds

Protein sequences, listed by entry. Tags and fused reporters are not part of them. Residues count along the entry.
UniProt I6X8D2, whole entry: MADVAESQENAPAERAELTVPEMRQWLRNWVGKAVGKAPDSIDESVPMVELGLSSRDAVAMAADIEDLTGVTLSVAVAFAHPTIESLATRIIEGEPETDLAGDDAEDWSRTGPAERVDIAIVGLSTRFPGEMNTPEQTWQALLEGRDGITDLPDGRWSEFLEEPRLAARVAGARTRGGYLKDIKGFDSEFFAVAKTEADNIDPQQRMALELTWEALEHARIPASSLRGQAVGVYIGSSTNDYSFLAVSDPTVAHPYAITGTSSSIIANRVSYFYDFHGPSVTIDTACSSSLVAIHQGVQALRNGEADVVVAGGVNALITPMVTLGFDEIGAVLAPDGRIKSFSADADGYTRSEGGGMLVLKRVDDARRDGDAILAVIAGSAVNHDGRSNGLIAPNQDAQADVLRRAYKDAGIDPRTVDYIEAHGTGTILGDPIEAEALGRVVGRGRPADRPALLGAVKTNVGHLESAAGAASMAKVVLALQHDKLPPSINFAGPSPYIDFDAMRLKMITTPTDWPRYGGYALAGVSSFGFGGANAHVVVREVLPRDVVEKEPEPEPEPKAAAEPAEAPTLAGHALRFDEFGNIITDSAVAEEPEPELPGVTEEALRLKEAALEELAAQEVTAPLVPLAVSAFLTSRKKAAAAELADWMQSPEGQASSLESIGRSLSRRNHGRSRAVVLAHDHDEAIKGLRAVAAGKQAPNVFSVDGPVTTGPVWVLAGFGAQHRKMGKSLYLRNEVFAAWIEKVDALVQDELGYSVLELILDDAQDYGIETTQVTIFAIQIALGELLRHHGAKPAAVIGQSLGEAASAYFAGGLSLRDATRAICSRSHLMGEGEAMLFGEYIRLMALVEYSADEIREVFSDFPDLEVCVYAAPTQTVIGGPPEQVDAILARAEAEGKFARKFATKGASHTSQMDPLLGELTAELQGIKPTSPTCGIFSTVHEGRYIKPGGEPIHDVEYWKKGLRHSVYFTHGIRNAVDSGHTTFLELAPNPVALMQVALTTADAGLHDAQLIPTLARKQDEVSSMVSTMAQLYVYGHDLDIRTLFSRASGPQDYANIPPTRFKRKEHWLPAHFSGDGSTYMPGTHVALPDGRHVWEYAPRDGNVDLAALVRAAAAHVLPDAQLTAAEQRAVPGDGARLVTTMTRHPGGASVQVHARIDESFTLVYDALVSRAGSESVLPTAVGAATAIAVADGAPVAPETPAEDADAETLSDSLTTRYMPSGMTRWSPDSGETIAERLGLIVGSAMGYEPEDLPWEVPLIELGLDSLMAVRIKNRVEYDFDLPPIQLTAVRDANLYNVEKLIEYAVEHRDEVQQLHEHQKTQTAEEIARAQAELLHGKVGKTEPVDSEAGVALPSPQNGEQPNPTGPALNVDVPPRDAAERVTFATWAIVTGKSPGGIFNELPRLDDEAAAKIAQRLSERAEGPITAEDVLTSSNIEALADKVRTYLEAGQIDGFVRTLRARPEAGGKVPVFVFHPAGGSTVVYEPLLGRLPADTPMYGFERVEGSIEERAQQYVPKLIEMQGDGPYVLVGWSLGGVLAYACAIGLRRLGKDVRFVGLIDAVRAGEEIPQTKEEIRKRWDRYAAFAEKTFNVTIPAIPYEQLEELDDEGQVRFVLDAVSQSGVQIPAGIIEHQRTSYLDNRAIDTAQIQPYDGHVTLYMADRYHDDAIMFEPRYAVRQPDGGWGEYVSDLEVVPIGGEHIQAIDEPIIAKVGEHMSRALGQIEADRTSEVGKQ
UniProt Q8IDJ8, 1-583: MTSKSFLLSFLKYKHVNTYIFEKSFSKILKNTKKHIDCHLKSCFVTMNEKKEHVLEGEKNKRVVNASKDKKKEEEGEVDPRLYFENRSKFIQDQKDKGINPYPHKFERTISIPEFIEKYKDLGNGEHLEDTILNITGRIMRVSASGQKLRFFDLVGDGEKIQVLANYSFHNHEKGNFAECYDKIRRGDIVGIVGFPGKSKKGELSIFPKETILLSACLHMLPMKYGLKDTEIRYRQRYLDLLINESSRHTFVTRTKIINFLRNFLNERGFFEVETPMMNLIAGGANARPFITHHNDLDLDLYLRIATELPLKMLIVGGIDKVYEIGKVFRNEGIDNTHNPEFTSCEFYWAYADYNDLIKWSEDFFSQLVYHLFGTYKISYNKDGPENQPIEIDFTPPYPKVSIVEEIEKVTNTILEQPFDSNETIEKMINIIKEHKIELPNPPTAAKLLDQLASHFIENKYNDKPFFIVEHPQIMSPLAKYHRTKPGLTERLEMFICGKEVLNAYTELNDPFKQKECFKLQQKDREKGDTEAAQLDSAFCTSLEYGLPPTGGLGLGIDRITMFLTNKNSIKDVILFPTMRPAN
UniProt A4I591, 1-473: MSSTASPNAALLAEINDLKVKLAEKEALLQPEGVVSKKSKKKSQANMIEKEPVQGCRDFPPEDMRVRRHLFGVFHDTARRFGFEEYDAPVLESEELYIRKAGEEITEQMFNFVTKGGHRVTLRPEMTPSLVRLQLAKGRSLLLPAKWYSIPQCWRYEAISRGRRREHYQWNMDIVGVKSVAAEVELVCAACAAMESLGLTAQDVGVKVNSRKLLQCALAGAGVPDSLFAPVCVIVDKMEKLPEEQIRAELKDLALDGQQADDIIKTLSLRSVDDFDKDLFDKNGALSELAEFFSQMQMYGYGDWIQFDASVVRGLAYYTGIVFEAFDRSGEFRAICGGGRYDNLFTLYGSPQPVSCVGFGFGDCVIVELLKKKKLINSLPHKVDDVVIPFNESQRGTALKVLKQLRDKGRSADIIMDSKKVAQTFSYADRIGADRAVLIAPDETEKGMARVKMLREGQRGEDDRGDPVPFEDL
UniProt P9WFT3, whole entry: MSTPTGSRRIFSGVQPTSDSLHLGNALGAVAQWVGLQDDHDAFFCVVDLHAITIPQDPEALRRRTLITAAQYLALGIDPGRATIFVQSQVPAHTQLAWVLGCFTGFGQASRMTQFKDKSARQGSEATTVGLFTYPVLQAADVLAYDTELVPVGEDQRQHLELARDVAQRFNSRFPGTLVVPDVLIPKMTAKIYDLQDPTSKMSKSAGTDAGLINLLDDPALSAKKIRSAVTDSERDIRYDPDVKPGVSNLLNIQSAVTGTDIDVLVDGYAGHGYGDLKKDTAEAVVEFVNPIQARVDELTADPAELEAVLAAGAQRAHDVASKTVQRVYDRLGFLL

Pks13 thioesterase: 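Enzyme assay of the thioesterase domain of polyketide synthase 13; the read-out is not stated. Target: Polyketide synthase Pks13, Mycobacterium tuberculosis (UniProt I6X8D2). Tested at 30 µM. Higher reads as stronger inhibition (inferred from which compounds were picked for retests). Of about 67,000 compounds tested this way, about 300 (0.46%) reached 50% or more in at least one test.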
PfKRS1: 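Enzyme assay of the cytosolic lysyl-tRNA synthetase in 384-well plates, read by luminescence. Target: Lysine-tRNA ligase, Plasmodium falciparum 3D7 (UniProt Q8IDJ8). Compounds at 30 µM. Higher reads as stronger inhibition, judged from the few compounds that gave an IC50. Size under these conditions: about 69,000 compounds, about 49 of them at 50% or above in at least one test.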
LiHisRS: 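Histidine-tRNA ligase, Leishmania infantum (UniProt A4I591). Enzyme assay of histidyl-tRNA synthetase; the read-out is not stated. Tested at 30 µM. The record gives no direction; compounds that gave an IC50 in retests scored well above the rest, so higher reads as stronger inhibition. The assay is labelled LdHisRS but filed under L. infantum. Size under these conditions: about 69,000 compounds, about 410 of them at 50% or above in at least one test.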
MtTrpRS: 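Tryptophan-tRNA ligase, Mycobacterium tuberculosis (UniProt P9WFT3). Enzyme assay of tryptophanyl-tRNA synthetase; the read-out is not stated. Concentration: 10 µM. Higher most likely means stronger inhibition; the record gives no direction and few retests gave an IC50. About 65,000 compounds were tested under these conditions; 0.098% (about 64) showed 50% or more at least once.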

Results are given as percent effect. The controls that fix the scale are not given in the record; negative values are as filed. The compounds are a random part of those screened. A dash means the value is not listed here; it may have been measured.

| # | SMILES | Pks13 thioesterase | PfKRS1 | LiHisRS | MtTrpRS |
|---|---|---|---|---|---|
| 1 | `Cc1cc(C[C@@H]2CCC[C@H]2NCc2cccc(F)c2F)on1` | -3.57 | 4.621 | 1.449 | - |
| 2 | `CCOc1ncc(NC(=O)c2ccco2)c(OCC)n1` | -13.12 | 11.78 | -1.739 | 0.228 |
| 3 | `Cc1cccc(NC(=O)C2CCCN2C(=O)c2ccco2)c1C` (centres unmarked) | -10.99 | -4.581 | 27.27 | 12.65 |
| 4 | `O=C(CCn1ccc2ccc(Cl)cc21)NCc1ccc(C(=O)O)cc1` | -6.737 | 3.491 | 10.53 | 3.885 |
| 5 | `COCCN1C[C@H]2[C@@H](C1)N(C(=O)c1cccs1)CC[C@H]2OC` | -21.26 | 4.18 | 13.73 | 4.506 |
| 6 | `CCC(CCN)n1ccc(C(F)(F)F)n1` (centres unmarked) | 10.04 | 1.542 | 8.247 | - |
| 7 | `CC(C)Cc1ncc2c(n1)CN(C(=O)c1ccc(CN3CCCC3)o1)C2` | -17.21 | 1.468 | 12.5 | -6.71 |
| 8 | `Clc1ccc(-c2nnc([C@H]3CCN(C4CCCCC4)C3)o2)cc1` | -3.49 | 3.38 | 20.27 | -0.8346 |
| 9 | `c1ccc(OC[C@@H]2CCC[C@@]23CNCCO3)nc1` | -21.62 | -2.992 | 10.53 | -1.831 |
| 10 | `CC(C)c1nc(C2CCCN2CC(=O)Nc2cccnc2)no1` (centres unmarked) | -8.842 | 3.736 | 12.07 | -9.833 |
| 11 | `O=C(C1CCOC1)N1CCC2(CC1)CN(c1ncccn1)CCO2` (centres unmarked) | -4.314 | -0.8885 | 23 | -3.26 |
| 12 | `Cc1nc2ccccc2c(=O)n1CCC(=O)N1CCNC(=O)C1` | -6.87 | -1.055 | 16.8 | -0.3145 |
| 13 | `Cc1ccc(-c2nc(CSCCC(=O)NC(N)=O)co2)cc1` | 4.922 | 4.431 | 16.33 | -0.1468 |
| 14 | `COCCNC(=O)c1cnc(C)nc1C` | -27.42 | -8.8 | -3.922 | -2.549 |
| 15 | `Cc1cnn(CCNCc2ccccc2OCc2ccncc2)c1` | -24.53 | -0.5045 | 14.78 | 3.195 |
| 16 | `CC1N(C)C(=O)COC12CCN(Cc1nccs1)CC2` (centres unmarked) | -0.3633 | 1.526 | 9.574 | 6.537 |
| 17 | `Cc1nn(C)c(C)c1CCC(=O)N1CCCC(n2cncn2)C1` (centres unmarked) | -13.66 | 0.5298 | 6.897 | -1.847 |
| 18 | `Cc1ccc(N2CCCC(N3CCC(N(C)C)CC3)C2=O)cc1` (centres unmarked) | - | 2.946 | 14.91 | 1.141 |
| 19 | `COc1ccc(CNCC2CCN(CCO)CC2)cc1F` | -9.412 | -0.09132 | 0.8929 | -5.972 |
| 20 | `Cc1cccc(=O)n1CCC(=O)N1CC[C@@](O)(C2CCC2)[C@H](C)C1` | -24.48 | 3.837 | 12.86 | 3.249 |
| 21 | `Cc1ccc(CN2C[C@@H]3COC[C@H](NS(C)(=O)=O)[C@@H]3C2)o1` | 6.026 | -0.7356 | 11.32 | -1.364 |
| 22 | `CC(O)CNC(=O)NCc1cccnc1OC1CCCC1` (centres unmarked) | -12.93 | 4.223 | 17.57 | 1.267 |
| 23 | `Cc1cncnc1C1CCN(CC2CC2)CC1` | -18.79 | -3.777 | 14.08 | 8.22 |
| 24 | `COc1ccc(CSc2nnc(N)n2C2CC2)cc1F` | -55.64 | -0.7004 | -6.329 | -0.4182 |
| 25 | `CC(C)[C@@H]1CN(C(=O)c2ccsc2)C[C@H]1C(=O)O` | 0.761 | -0.4322 | 4.082 | -0.000007 |
| 26 | `CC(C)C(C)NC(=O)c1cccn1Cc1cccnc1` (centres unmarked) | -0.3254 | 2.764 | -2.632 | -7.796 |
| 27 | `O=C(COc1ccc(C(F)(F)F)cc1)NS(=O)(=O)c1cccnc1` | -4.159 | 2.971 | -7.2 | -1.415 |
| 28 | `CC(C)(C(=O)NCC1CC1)c1ccccc1F` | -10.29 | 5.101 | -4.808 | 1.517 |
| 29 | `CCn1c(CC2CCN(C(=O)C3COCCO3)CC2)nn(C)c1=O` (centres unmarked) | -23.38 | -1.158 | -1.01 | 9.455 |
| 30 | `Cc1nc(C)n(CC2CN(CCc3cccs3)CCO2)n1` (centres unmarked) | -6.421 | -2.24 | 6.452 | 2.584 |
| 31 | `Nc1ncccc1C(=O)NCc1cccc(Cl)c1` | 3.547 | 5.019 | 12.41 | -1.124 |
| 32 | `CC(C)NC(=O)NCCCc1cc(N)n(-c2ccccc2)n1` | -9.639 | 0.4289 | 25 | -8.624 |
| 33 | `Cc1nn2cccnc2c1C(=O)N1CCCC(n2ccnc2C)C1` (centres unmarked) | -10.68 | 1.125 | 1.786 | -2.596 |
| 34 | `COCC(=O)N1CCC2(COCc3c(C)nc(N(C)C)nc32)C1` (centres unmarked) | -26.96 | -2.37 | -1.37 | 17.13 |
| 35 | `COCC(=O)N[C@H](C)c1onc(-c2ccccc2)c1C(=O)O` | -11.71 | 3.43 | 12.16 | 1.593 |
| 36 | `CCc1ccc(CCC(=O)N2CCOCC2c2ncon2)cc1` (centres unmarked) | -11.29 | 3.513 | -3.077 | -2.818 |
| 37 | `O=C(c1ccc(Cn2ccccc2=O)o1)N1CCC2(CC1)OCCO2` | -11.38 | -2.413 | 5.505 | -5.999 |
| 38 | `COc1cccc(-c2n[nH]cc2CNC2CCN(C3CC3)CC2)c1` | 2.699 | -0.3654 | 10.71 | 2.8 |
| 39 | `Cc1cnccc1-c1cnn(CCNC(=O)c2ccccn2)c1C1CC1` | -1.844 | 1.648 | 4.255 | -1.795 |
| 40 | `Cc1ccc(CN(C)c2cc(N3CCCC3CO)ncn2)s1` (centres unmarked) | -9.039 | 4.416 | 5.208 | -1.135 |
| 41 | `Cn1cc(CN2CC[C@@H]3[C@@H]2CCN3C(=O)c2cccc(F)c2)cn1` | -3.016 | 1.218 | 21 | -5.08 |
| 42 | `CC(=O)NS(=O)(=O)c1ccc(F)c(C(F)(F)F)c1` | -7.464 | 1.836 | 14.29 | 11.52 |
| 43 | `Cc1cc(C(=O)N2CCCC2c2noc(C)n2)[nH]n1` (centres unmarked) | -7.712 | 1.251 | 7.143 | -1.168 |
| 44 | `CCNC(=O)NC1CN(Cc2ccccc2N(C)C)C[C@@H]1OC` (some centres unmarked) | -22.2 | 7.745 | 15.25 | -2.445 |
| 45 | `O=C(c1ccccc1)N1CCO[C@@H]2CNC[C@@H]21` | -13.34 | 2.534 | 2.703 | - |
| 46 | `Cn1cc(C(=O)CC2CCCN2C(=O)c2n[nH]c3ccccc23)cn1` (centres unmarked) | -16.8 | -0.2662 | 13.51 | -3.606 |
| 47 | `COC(=O)C1CCN(CC2(c3ccc(C)cn3)CCNCC2)CC1` | -12.34 | 4.676 | 22.22 | -2.916 |
| 48 | `Cc1ccc(CC(=O)NCCCNS(C)(=O)=O)cc1` | -6.38 | 2.057 | 18.92 | 0.2924 |

Measurements from “University of Dundee, Small-Polar-MMV Screening Library” (2021), ChEMBL document CHEMBL3988442.